Among the data in PMC7954848 are binding values, retold here.

Amino acid sequences for entries named in this document (tags omitted).
UniProt Q93034: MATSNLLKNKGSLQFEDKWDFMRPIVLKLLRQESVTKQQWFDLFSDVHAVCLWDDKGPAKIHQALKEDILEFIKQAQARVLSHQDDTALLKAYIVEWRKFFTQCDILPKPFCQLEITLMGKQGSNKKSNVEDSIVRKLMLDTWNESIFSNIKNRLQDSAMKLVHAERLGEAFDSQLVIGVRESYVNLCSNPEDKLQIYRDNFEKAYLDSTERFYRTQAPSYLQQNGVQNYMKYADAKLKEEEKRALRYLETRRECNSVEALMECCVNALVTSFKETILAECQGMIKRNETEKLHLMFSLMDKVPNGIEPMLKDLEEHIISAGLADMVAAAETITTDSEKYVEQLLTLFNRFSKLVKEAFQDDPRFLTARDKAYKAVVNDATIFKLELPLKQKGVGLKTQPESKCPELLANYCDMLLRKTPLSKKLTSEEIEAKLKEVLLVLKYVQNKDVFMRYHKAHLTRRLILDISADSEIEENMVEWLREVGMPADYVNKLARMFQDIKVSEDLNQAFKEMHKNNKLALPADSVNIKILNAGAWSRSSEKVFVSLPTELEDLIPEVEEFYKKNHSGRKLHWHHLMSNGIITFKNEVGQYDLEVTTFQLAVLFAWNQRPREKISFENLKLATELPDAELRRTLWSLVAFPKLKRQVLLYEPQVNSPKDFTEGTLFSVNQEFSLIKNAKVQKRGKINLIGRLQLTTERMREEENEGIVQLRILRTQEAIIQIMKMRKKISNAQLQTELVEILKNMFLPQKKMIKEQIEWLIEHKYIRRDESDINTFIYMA

Results are given in words; binding and its absence hold for the method and conditions named. In cells and extracts the contact can be indirect. Some binding calls cover weakened binding; strength is not graded here.

The target in assay [1] is cullin-5 (human (endogenous in HCT116 and DLD1)) (UniProt Q93034). Nature of the assay: co-IP; lysates of HCT116 cells transfected with sh-PRDX1 or control, precipitated with anti-UBE2F or anti-CUL5 antibody, then Protein A + G Agarose; Western blot. Background: In western blotting, separated proteins are transferred to a membrane and probed.
In assay [2] the target is T1, PRDX1 (human (endogenous in HCT116 and DLD1)) (UniProt Q06830).
T1 sequence: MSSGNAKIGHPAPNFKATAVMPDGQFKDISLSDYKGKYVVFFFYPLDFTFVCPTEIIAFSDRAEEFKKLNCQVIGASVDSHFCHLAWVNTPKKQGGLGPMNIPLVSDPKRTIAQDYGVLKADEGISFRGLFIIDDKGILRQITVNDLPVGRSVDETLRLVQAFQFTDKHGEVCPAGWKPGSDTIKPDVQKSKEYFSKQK
Nature of the assay: co-IP; HCT116 and DLD1 lysates (mild RIPA lysis buffer) precipitated with anti-PRDX1 or IgG control antibody overnight, then Protein A + G Agarose at 4 °C for 4 h; endogenous proteins detected by Western blot.

B1: Nedd8-conjugating enzyme UBE2F (enzyme, UniProt Q969M7 1-185)
chain: MLTLASKLKRDDGLKGSRTAATASDSTRRVSVRDKLLVKEVAELEANLPCTCKVHFPDPNKLHCFQLTVTPDEGYYQGGKFQFETEVPDAYNMVPPKVKCLTKIWHPNITETGEICLSLLREHSIDGTGWAPTRTLKDVVWGLNSLFTDLLNFDDPLNIEAAEHHLRDKEDFRNKVDDYIKRYAR
B1: the binding result in assay [1] and in assay [2] was “binds” in each case.
